Reference: doi:10.1101/2022.08.18.504421
Results are given in words; binding and its absence hold for the method and conditions named. Binding seen in cells or lysates may run through a third protein. Some binding calls cover weakened binding; strength is not graded here.

Protein sequences, listed by entry. Tags and fused reporters are not part of them.
UniProt P01123: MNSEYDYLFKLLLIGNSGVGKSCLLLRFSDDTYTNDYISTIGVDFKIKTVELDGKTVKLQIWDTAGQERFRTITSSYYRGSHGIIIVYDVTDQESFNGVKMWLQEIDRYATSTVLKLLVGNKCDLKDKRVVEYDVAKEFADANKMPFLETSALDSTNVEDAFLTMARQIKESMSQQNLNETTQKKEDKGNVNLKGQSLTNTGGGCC

Target: Ypt1p-TAP (S. cerevisiae) (UniProt P01123)
Experiment: co-IP

Row | Binder | binding
1 | Nrd1p (protein, UniProt P53617 1-575) MQQDDDFQNFVATLESFKDLKSGISGSRIKKLTTYALDHIDIESKIISLIIDYSRLCPDSHKLGSLYIIDSIGRAYLDETRSNSNSSSNKPGTCAHAINTLGEVIQELLSDAIAKSNQDHKEKIRMLLDIWDRSGLFQKSYLNAIRSKCFAMDISNNTANTASQQLSLDPKQRSKQILSNLKKSPPLNLNISLPTDLTSTDPAKQQAALFQVIAALQKHFKTLPSHTSVGTVAPPQAHTITEYGSRRERERERERYNSRRNRSRSPPAPFSQPSTGRKDRYPSVAQDQYSIGAPNTTFGTNNHHLYPDELNVSNNPHYRPKPVSYDSTLPPDHIKVYSRTLFIGGVPLNMKEWDLANVLKPFAEVQSVILNNSRKHAFVKVYSRHEAENVLQNFNKDGALPLRTRWGVGFGPRDCCDYQHGYSIIPMHRLTDADKKWSVSAQWGGTSGQPLVTGIVFEEPDIIVGEGVSSKAISQKMPTDSGRNGPRSGKPNKSGSISSISPVPYGNAPLASPPPQQYVQPMMQQPYGYAPNQPLPSQGPAAAAPPVPQQQFDPTAQLNSLMNMLNQQQQQQQQS | binds
2 | Nab3p (protein, UniProt P38996 1-802) MSDENHNSDVQDIPSPELSVDSNSNENELMNNSSADDGIEFDAPEEEREAEREEENEEQHELEDVNDEEEEDKEEKGEENGEVINTEEEEEEEHQQKGGNDDDDDDNEEEEEEEEDDDDDDDDDDDDEEEEEEEEEEGNDNSSVGSDSAAEDGEDEEDKKDKTKDKEVELRRETLEKEQKDVDEAIKKITREENDNTHFPTNMENVNYDLLQKQVKYIMDSNMLNLPQFQHLPQEEKMSAILAMLNSNSDTALSVPPHDSTISTTASASATSGARSNDQRKPPLSDAQRRMRFPRADLSKPITEEEHDRYAAYLHGENKITEMHNIPPKSRLFIGNLPLKNVSKEDLFRIFSPYGHIMQINIKNAFGFIQFDNPQSVRDAIECESQEMNFGKKLILEVSSSNARPQFDHGDHGTNSSSTFISSAKRPFQTESGDMYNDDNGAGYKKSRRHTVSCNIFVKRTADRTYAIEVFNRFRDGTGLETDMIFLKPRMELGKLINDAAYNGVWGVVLVNKTHNVDVQTFYKGSQGETKFDEYISISADDAVAIFNNIKNNRNNSRPTDYRAMSHQQNIYGAPPLPVPNGPAVGPPPQTNYYQGYSMPPPQQQQQQPYGNYGMPPPSHDQGYGSQPPIPMNQSYGRYQTSIPPPPPQQQIPQGYGRYQAGPPPQPPSQTPMDQQQLLSAIQNLPPNVVSNLLSMAQQQQQQPHAQQQLVGLIQSMQGQAPQQQQQQLGGYSSMNSSSPPPMSTNYNGQNISAKPSAPPMSHQPPPPQQQQQQQQQQQQQQQQPAGNNVQSLLDSLAKLQK | binds
3 | Cbc1p (protein, UniProt P34160 1-861) MFNRKRRGDFDEDENYRDFRPRMPKRQRIPPVVQLCKEMMPDIRTIGESVKAFEDDIKFLSEAIMNEYGHEDYFNNALLSTLNAVVVEQPQKQAAIALLTMVVNSKNNVAGKSIINYFFEELQKWCKQTYNDEFKSTSNETGPWNKIKLILRFLSILSPMFLVDELINIYKSLFELSIELNNLDPGNRVPLSEAIYTNTLLNIPYLFFFNRNNDGLRTKVEELLAYVEQNYLVKTTDINLLREYNGEPPYEMVELVRVVLPNVKKALINNLEQLNELFPDWNHLLTPQTGDEGFNDALTLPSVDDLKSFVRLNKNFGSVDSMWKTPRYAFHVYLPNSAGNFETVVPISTYAGQLFNDIIIDLVESLEFNRKEVARQVITLDLFFKAGIFTEPGESIAQLIATYEENPLAPTFKIEDLAIETILGLIFKLPSVSQPFAYFYTLLVDICQNSPKAIAPVFGRAFRFFYSHLDSLDFELKLRYLDWFSIQMSNFNFSWKWNEWEDDSIKFGKYFYNPKVNFAKNLIQKELRLTSNFSEVEDSLPQEFTKYLDTSYIPRDQLINYYQSLFTGYTVEEDSVRKNDLYFRQEGVPMENTVRKILDYTHKANNSREVTELESILGELKNEYGSIISDFNRFVIILLVQAVTDSGSRSLSHANKYINDLKEDLKTIFAKIELDIETKEYIIIEAVLTFWNANPQTGFLVADAFKYAGLLTSRTIFTFIFNETGLKNNGLIEATAIEAVFRNLSQQISEENESGNNFEFVFERLCTIANSTIDLLDVNADEDIEIPKVNGEMDIDDIEDDKLDLKWKYFTVIGFIKSILRRYSHEYRELADKFIANIDNAIPHESTRRTISNWIQETKEV | binds

Second part, the binder after the results:

Row | binding | Binder
4 | binds | Tif4631p (protein, UniProt P39935 1-952) MTDETAHPTQSASKQESAALKQTGDDQQESQQQRGYTNYNNGSNYTQKKPYNSNRPHQQRGGKFGPNRYNNRGNYNGGGSFRGGHMGANSSNVPWTGYYNNYPVYYQPQQMAAAGSAPANPIPVEEKSPVPTKIEITTKSGEHLDLKEQHKAKLQSQERSTVSPQPESKLKETSDSTSTSTPTPTPSTNDSKASSEENISEAEKTRRNFIEQVKLRKAALEKKRKEQLEGSSGNNNIPMKTTPENVEEKGSDKPEVTEKTKPAEEKSAEPEVKQETPAEEGEQGEKGQIKEESTPKVLTFAERLKLKKQQKEREEKTEGKENKEVPVQEETKSAIESAPVPPSEQVKEETEVAETEQSNIDESATTPAIPTKSDEAEAEVEAEAGDAGTKIGLEAEIETTTDETDDGTNTVSHILNVLKDATPIEDVFSFNYPEGIEGPDIKYKKEHVKYTYGPTFLLQFKDKLNVKADAEWVQSTASKIVIPPGMGRGNRSRDSGRFGNNSSRGHDFRNTSVRNMDDRANSRTSSKRRSKRMNDDRRSNRSYTSRRDRERGSYRNEEKREDDKPKEEVAPLVPSANRWVPKFKSKKTEKKLAPDGKTELLDKDEVERKMKSLLNKLTLEMFDAISSEILAIANISVWETNGETLKAVIEQIFLKACDEPHWSSMYAQLCGKVVKELNPDITDETNEGKTGPKLVLHYLVARCHAEFDKGWTDKLPTNEDGTPLEPEMMSEEYYAAASAKRRGLGLVRFIGFLYRLNLLTGKMMFECFRRLMKDLTDSPSEETLESVVELLNTVGEQFETDSFRTGQATLEGSQLLDSLFGILDNIIQTAKISSRIKFKLIDIKELRHDKNWNSDKKDNGPKTIQQIHEEEERQRQLKNNSRSNSRRTNNSSNRHSFRRDAPPASKDSFITTRTYSQRNSQRAPPPKEEPAAPTSTATNMFSALMGESDDEE
5 | binds | Rrp4p (protein, UniProt P38792 1-359) MSEVITITKRNGAFQNSSNLSYNNTGISDDENDEEDIYMHDVNSASKSESDSQIVTPGELVTDDPIWMRGHGTYFLDNMTYSSVAGTVSRVNRLLSVIPLKGRYAPETGDHVVGRIAEVGNKRWKVDIGGKQHAVLMLGSVNLPGGILRRKSESDELQMRSFLKEGDLLNAEVQSLFQDGSASLHTRSLKYGKLRNGMFCQVPSSLIVRAKNHTHNLPGNITVVLGVNGYIWLRKTSQMDLARDTPSANNSSSIKSTGPTGAVSLNPSITRLEEESSWQIYSDENDPSISNNIRQAICRYANVIKALAFCEIGITQQRIVSAYEASMVYSNVGELIEKNVMESIGSDILTAEKMRGNGN
